For this assay, the target named is αB-crystallin wild type (unlabeled) (UniProt P02511). Put plainly: native MS; samples at 20 μM electrosprayed, modified quadrupole-TOF; spectra fit with UniDec, oligomer mass list of 5 to 50 subunits; both purified.

For one molecule, binding results are on record in PMC8463877.

No constants are given. Whether binding was seen depends on the method and setting. Some results given as binding are weak or reduced against the parent protein; the word gives no strength.

B1: αB-crystallin wild type (unlabeled) (protein, UniProt P02511 1-175)
chain: MDIAIHHPWIRRPFFPFHSPSRLFDQFFGEHLLESDLFPTSTSLSPFYLRPPSFLRAPSWFDTGLSEMRLEKDRFSVNLDVKHFSPEELKVKVLGDVIEVHGKHEERQDEHGFISREFHRKYRIPADVDPLTITSSLSSDGVLTVNGPRKQVSGPERTIPITREEKPAVTAAPKK
Turning to B1, the binding entry is “binds”.
